Results taken from publication doi:10.1101/2025.06.04.657826.
Where two headings read alike, the source gives them in different places. These are yes or no findings as the source states them, for the method shown. In cells and extracts the contact can be indirect. Some results given as binding are weak or reduced against the parent protein; the word gives no strength. Blank lines part the entries; values can stand above or below the molecule they belong to.

By UniProt entry, the sequences of proteins in these tests, tags left out.
UniProt Q15648: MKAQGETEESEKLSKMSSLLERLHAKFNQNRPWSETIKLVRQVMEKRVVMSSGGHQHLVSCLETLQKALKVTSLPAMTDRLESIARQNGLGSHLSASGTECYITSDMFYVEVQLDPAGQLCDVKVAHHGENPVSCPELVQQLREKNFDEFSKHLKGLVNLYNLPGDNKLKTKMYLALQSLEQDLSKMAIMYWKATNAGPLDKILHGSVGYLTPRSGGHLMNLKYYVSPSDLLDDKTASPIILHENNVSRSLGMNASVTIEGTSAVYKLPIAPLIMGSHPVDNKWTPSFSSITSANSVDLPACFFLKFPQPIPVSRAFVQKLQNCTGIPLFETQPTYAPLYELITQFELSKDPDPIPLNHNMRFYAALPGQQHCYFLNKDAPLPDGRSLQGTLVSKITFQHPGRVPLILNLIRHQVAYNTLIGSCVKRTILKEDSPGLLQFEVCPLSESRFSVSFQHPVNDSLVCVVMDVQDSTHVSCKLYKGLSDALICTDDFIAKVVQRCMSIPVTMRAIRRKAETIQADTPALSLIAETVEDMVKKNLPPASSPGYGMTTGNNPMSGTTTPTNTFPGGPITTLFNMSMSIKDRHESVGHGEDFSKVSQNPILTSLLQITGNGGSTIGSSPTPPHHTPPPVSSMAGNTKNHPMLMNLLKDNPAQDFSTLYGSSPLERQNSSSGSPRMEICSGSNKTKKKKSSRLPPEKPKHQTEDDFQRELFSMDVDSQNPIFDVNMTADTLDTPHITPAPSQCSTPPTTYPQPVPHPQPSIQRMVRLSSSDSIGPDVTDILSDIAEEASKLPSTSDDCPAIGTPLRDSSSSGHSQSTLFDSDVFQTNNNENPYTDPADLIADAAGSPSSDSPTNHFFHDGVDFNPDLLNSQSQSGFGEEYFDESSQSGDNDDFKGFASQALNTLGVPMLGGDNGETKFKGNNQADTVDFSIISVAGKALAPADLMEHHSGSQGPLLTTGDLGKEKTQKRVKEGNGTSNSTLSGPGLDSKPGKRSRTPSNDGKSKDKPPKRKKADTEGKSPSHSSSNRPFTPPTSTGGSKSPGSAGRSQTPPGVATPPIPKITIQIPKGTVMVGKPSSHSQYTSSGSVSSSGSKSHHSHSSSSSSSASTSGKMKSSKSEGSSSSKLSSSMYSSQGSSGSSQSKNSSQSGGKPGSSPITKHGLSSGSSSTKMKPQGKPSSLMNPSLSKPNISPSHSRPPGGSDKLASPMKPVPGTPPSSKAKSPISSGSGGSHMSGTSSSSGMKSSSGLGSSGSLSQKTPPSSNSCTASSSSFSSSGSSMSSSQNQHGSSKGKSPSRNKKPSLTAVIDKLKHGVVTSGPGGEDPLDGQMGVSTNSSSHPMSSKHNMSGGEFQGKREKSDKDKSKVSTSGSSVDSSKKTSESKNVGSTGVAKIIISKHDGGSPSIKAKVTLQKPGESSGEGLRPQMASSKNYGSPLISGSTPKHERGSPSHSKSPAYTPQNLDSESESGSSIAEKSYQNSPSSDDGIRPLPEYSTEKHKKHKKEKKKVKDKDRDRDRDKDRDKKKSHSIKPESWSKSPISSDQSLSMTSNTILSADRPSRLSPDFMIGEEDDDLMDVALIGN

Experiments:
[1] = biological target: T1, FOXA2 (human (endogenous in primary human hepatocytes and HepaRG cells)) (UniProt Q9Y261); assay: co-IP
T1 sequence: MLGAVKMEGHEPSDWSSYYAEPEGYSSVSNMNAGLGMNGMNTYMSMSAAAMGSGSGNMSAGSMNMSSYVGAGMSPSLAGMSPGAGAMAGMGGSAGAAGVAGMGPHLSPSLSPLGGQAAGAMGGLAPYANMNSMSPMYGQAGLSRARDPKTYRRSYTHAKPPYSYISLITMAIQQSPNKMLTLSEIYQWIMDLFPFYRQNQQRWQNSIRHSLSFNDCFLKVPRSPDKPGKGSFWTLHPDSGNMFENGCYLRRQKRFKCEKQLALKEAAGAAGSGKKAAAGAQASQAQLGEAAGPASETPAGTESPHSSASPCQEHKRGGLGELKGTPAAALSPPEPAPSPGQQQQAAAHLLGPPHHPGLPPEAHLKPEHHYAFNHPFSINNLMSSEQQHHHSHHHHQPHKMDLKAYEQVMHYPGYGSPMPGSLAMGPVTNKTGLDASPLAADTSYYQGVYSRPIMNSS

[2] = biological target: T1, FOXA2 (human (endogenous in primary human hepatocytes and HepaRG cells)); assay: co-IP; remark: listed apart in the source

binding [1]: no binding
Molecule: MED1 (from UniProt Q15648 1-1581)

binding [2]: binds
binding [1]: binds
B1: HNF4α (protein, UniProt P41235 1-474)
chain: MRLSKTLVDMDMADYSAALDPAYTTLEFENVQVLTMGNDTSPSEGTNLNAPNSLGVSALCAICGDRATGKHYGASSCDGCKGFFRRSVRKNHMYSCRFSRQCVVDKDKRNQCRYCRLKKCFRAGMKKEAVQNERDRISTRRSSYEDSSLPSINALLQAEVLSRQITSPVSGINGDIRAKKIASIADVCESMKEQLLVLVEWAKYIPAFCELPLDDQVALLRAHAGEHLLLGATKRSMVFKDVLLLGNDYIVPRHCPELAEMSRVSIRILDELVLPFQELQIDDNEYAYLKAIIFFDPDAKGLSDPGKIKRLRSQVQVSLEDYINDRQYDSRGRFGELLLLLPTLQSITWQMIEQIQFIKLFGMAKIDNLLQEMLLGGSPSDAPHAHHPLHPHLMQEHMGTNVIVANTMPTHLSNGQMCEWPRPRGQAATPETPQPSPPGGSGSEPYKLLPGAVATIVKPLSAIPQPTITKQEVI
